Laboratory results as given in PubChem BioAssay AID485314 (National Center for Advancing Translational Sciences (NCATS), 2010).
Out of some 340,000 compounds screened, about 4,500 (1.3%) were called active. Inconclusive results, whose numbers are uncertain, are shown with a selection of clear calls. Calls follow the shape of the dose curve; as a rule, active = well fitted inhibition curve with a large enough effect; inconclusive = small, poorly fitted or top-dose-only effect, or another doubt; inactive = no such curve, though single readings can be large or run the other way. Potencies beside an inconclusive call are fits to weak or partial responses and may not hold up.

biological target: DNA polymerase beta (Homo sapiens) (UniProt P06746); assay: qHTS Assay for Inhibitors of DNA Polymerase Beta; conditions: Pol beta primer extension/strand displacement, fluorescence kinetic; activity change, negative = inhibition: at 114 µM (top of the series)
How it was run: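 Enzyme-only controls used 10 nM Pol beta; buffer lacking enzyme served as negative control. Compound preincubated 15 min, then 50 nM substrate added; 0 and 10 min reads at room temperature.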
% is scaled to controls: 0 for no effect and ±100 for the full control effect; potency is read from the fitted curve at half-maximal effect.

Potency, inconclusive:
COc1ccc(CCNC(=O)c2cc3c(s2)-c2ccccc2OC3)cc1OC 35.5 µM [inhibitor, partial curve], CCOc1ccc(Nc2cc(C)nc3nc(Cc4ccc(Cl)cc4)nn23)cc1 17.8 µM [inhibitor, full curve], Cc1ccc(-n2nc3c(N4CCC(C(=O)NC(C)c5ccccc5)CC4)nnc(C)c3c2C)cc1 (configuration not stated) 56.2 µM [inhibitor, partial curve, poor fit], COc1ccc(-c2nnn(CC(=O)NCc3cccs3)n2)cc1OC 4.47 µM [inhibitor, single point], COc1cc2nc(CC(C)C)n(NC(=O)c3ccccc3Br)c(=O)c2cc1OC 100 µM [inhibitor, single point], CCOC(=O)n1c(=O)oc2cc(S(=O)(=O)N3CCCCC3)ccc21 39.8 µM [inhibitor, single point], COc1ccc(OC)c2[nH]c(=O)c(CCNS(=O)(=O)c3ccc(Cl)cc3)cc12 8.91 µM [inhibitor, partial curve, poor fit], Cc1cc(C)nc(-n2nc(C)cc2NC(=O)c2cc(=O)c3ccccc3o2)n1 89.1 µM [inhibitor, single point], Cn1c(NC(=O)c2ccc(F)cc2)c(-c2cccs2)c(=O)c2ccccc21 22.4 µM [inhibitor, partial curve], COc1cccc(C(=O)Nc2ccc(-n3nncc3-c3ccccc3)cc2)c1 8.91 µM [inhibitor, partial curve, poor fit], COc1ccc(/C=C2\Oc3cc(OCC(=O)N4CCC(C(=O)O)CC4)ccc3C2=O)c(OC)c1 17.8 µM [inhibitor, partial curve], Cc1ccc(NC(=O)c2c(C)oc3ccc(O)c(CN4CCOCC4)c23)c(C)c1 70.8 µM [inhibitor, partial curve], Cc1ccc(NC(=O)c2cc3c(=O)n(Cc4ccco4)ccc3nc2C)cc1C 89.1 µM [inhibitor, single point], COc1ccc(-c2cc(OC(=O)c3cccc(Cl)c3)c3c(C)oc(C)c3c(=O)c2)cc1 11.2 µM [inhibitor, partial curve, poor fit], CCOc1ccc(NC(=O)Cn2nnc(C(=O)NCCc3ccccc3)c2N)cc1 7.94 µM [inhibitor, full curve], Cc1cc(C)cc(NC(=O)Cn2nnc(C(=O)NCc3cccs3)c2N)c1 44.7 µM [inhibitor, partial curve], Cc1nsc(Nc2ccc([N+](=O)[O-])cc2)c1C#N 2 µM [inhibitor, single point], O=C(CCCN1C(=O)/C(=C/c2cccs2)SC1=S)Nc1ccc(O)c(C(=O)O)c1 70.8 µM [inhibitor, partial curve], Cc1nc2cc(NC(=O)Nc3ccc(Br)cc3)ccc2o1 0.126 µM [inhibitor, full curve, poor fit], CCOCC(=O)Nc1ccccc1C(=O)O 56.2 µM [inhibitor, single point], CCCCc1ccc(/C=C(\C#N)C(N)=S)s1 12.6 µM [inhibitor, partial curve], O=C(/C=C/c1c(Cl)nc2ccccn12)N1CCN(c2ccc(F)cc2)CC1 17.8 µM [inhibitor, full curve], CCc1cc2cccc(C)c2nc1SCC(=O)c1ccc(NC(C)=O)cc1 63.1 µM [inhibitor, partial curve, poor fit], CC(C)NC(=O)COC(=O)c1ccc(Cl)c(S(=O)(=O)N2CCCC2)c1 39.8 µM [inhibitor, partial curve], O=c1[nH]c(CSc2ccccn2)nc2c1cnn2-c1ccccc1 89.1 µM [inhibitor, single point], CSCCC(NS(=O)(=O)c1ccc2c(c1)oc(=O)n2C)C(=O)N1CCN(c2ccc(C(C)=O)cc2)CC1 (configuration not stated) 25.1 µM [inhibitor, single point], COc1cc(/C=C(/C#N)c2nc3ccccc3[nH]2)ccc1OCc1ccc(C(=O)O)o1 0.112 µM [inhibitor, full curve, poor fit], CCOC(=O)c1c(CSc2ccccc2)n(C)c2cc(Br)c(OCC(O)CNC(CO)(CO)CO)cc12 (configuration not stated) 50.1 µM [inhibitor, partial curve], CC(C)OCCCNC(=O)CCN1C(=O)COc2ccccc21 100 µM [inhibitor, single point], Cc1ccc(C(=O)Nc2cccc(NC(=O)c3cccs3)c2)c(C)c1 17.8 µM [inhibitor, full curve, poor fit], CCc1ccccc1NC(=O)N1CCCC(CCC(=O)N(C)CCc2ccccn2)C1 (configuration not stated) 89.1 µM [inhibitor, single point], CCc1cc2cc(C)c(C)cc2nc1SCC(=O)Nc1cc(C)on1 89.1 µM [inhibitor, single point], CCn1ccc2cc(S(=O)(=O)N3CCC(C(=O)NCCc4ccccc4)CC3)ccc21 89.1 µM [inhibitor, single point], CCC(C)NC(=O)CNC(=O)c1nn(-c2ccc(OC)cc2)c(=O)c2ccccc12 (configuration not stated) 0.447 µM [inhibitor, full curve, poor fit], COc1ccc(N2CCN(C(c3cccs3)c3nnnn3C3CCCC3)CC2)cc1 (configuration not stated) 0.1 µM [inhibitor, full curve, poor fit], Cc1cc2cccc(C)c2nc1SCC(=O)NC1CCCCC1 0.708 µM [inhibitor, full curve, poor fit], COc1ccccc1NC(=O)CN1C(=O)CSc2ccc(S(=O)(=O)N3CCCC3)cc21 89.1 µM [inhibitor, single point], CCn1c2ccccc2c2cc(NC(=O)CSc3nnc(-c4cccc(OC)c4)n3N)ccc21 10 µM [inhibitor, partial curve], CCN(CC)S(=O)(=O)c1ccc(OC)c(NC(=O)COc2ccccc2[N+](=O)[O-])c1 39.8 µM [inhibitor, full curve], CCC(=O)NC(c1ccc(N(C)C)cc1)c1c(O)ccc2ccccc12 (configuration not stated) 50.1 µM [inhibitor, partial curve], O=C(Cn1c(=O)oc2cc(S(=O)(=O)NCc3ccccc3)ccc21)NCc1ccccc1Cl 0.141 µM [inhibitor, full curve, poor fit], CCOc1ccc(NC(=S)N(CCN2CCOCC2)Cc2cc3cc4c(cc3[nH]c2=O)OCCO4)cc1 0.447 µM [inhibitor, full curve, poor fit], Cc1ccc(C)c(Nc2cc(C(=O)NCCCN(C)C3CCCCC3)c3ccccc3n2)c1 5.01 µM [inhibitor, full curve, poor fit]

Potency, active:
Cc1cc2c(c(=O)o1)C1O[C@](c3ccsc3)(Cc3cc(C#N)ccc31)O2 10 µM, O=c1[nH]c(CN2CCc3ccccc32)nc2scc(-c3cccs3)c12 39.8 µM, O=C(N/N=C/c1ccccn1)c1ccc(S(=O)(=O)N2CCCCCC2)cc1 20 µM

Potency, inactive:
CCN(CC)Cc1c(NC(=O)c2ccc(OC)cc2)sc2c1CCCC2, CC(=O)Nc1ccc(Nc2nc3c(S(=O)(=O)c4cccc(Cl)c4)nnn3c3ccsc23)cc1, CCOc1ccc(NC(=O)N(Cc2c[nH]c3ccccc23)C2CCCCCC2)cc1, Cc1ccc(OCC(=O)N(Cc2ccco2)Cc2ccco2)cc1C, Cc1nc2sc(C(=O)N(C)c3ccccc3)c(NC(=O)c3ccccc3Cl)c2c(C)c1C, Cc1ccc(NC(=S)NCCCN2CCOCC2)cc1, COc1ccc(CNC(=O)CN(CCC(C)C)S(=O)(=O)c2ccc3c(c2)OCCO3)cc1, CCOC(=O)c1noc2ncn(CC(=O)Nc3cccc(Cl)c3)c(=O)c12, CCOC(=O)c1c(C)oc2c1c(CN1CCN(CCO)CC1)c(O)c1ccccc12, COC(=O)c1ccc(CC(=O)c2ccc(O)cc2O)o1, CCOC(=O)c1c(C)oc2nc(C)nc(NCc3cccc(Cl)c3)c12, CN1C(=O)C2C(c3ccc(N(C)C)cc3)=NN(Cc3ccccc3)C2C1=O (configuration not stated), COc1cc(OC)c(NC(=O)c2c(C)oc3nc(C)nc(N4CCOCC4)c23)cc1Cl, Cc1ccc(C)c(S(=O)(=O)Nc2ccccc2C(=O)Nc2ccc(S(=O)(=O)Nc3ncccn3)cc2)c1, Cc1cc(C)c(NC(=O)CCCn2c(C)c3cnn(-c4ccccc4)c(=O)c3c2C)c(C)c1, C/C(=N\NC(=O)c1cccc(S(=O)(=O)N2CCOCC2)c1)c1ccc(C#N)cc1, CC(C)CC(=O)Nc1nnc(SCc2cc(=O)n3ccccc3n2)s1, Nc1nc(Cl)nc2ncn(Cc3ccccc3)c12, Cc1ccc2scc(N3CCCCC3)c(=O)c2c1

Activity change, negative = inhibition, inconclusive:
CC1=NNC(=O)C1CC(=O)N/N=C/C(Br)=C/c1ccccc1 (configuration not stated) -32.8% [inhibitor], O=c1[nH]c(CSc2ncnc3sccc23)nc2ccccc12 -35.7% [inhibitor]
